# Measured values from PMC4625211, “Putative Breast Cancer Driver Mutations in TBX3 Cause Impaired Transcriptional Repression”.
# For some assays here: Weaker means in comparison with the reference protein, sequence or condition of that experiment. For some assays here: Tags and fusion partners may be left off the protein sequences shown. For some assays here: Construct, isoform or probe ends are uncertain for at least one entry. For some assays here: A negative result means that nothing was seen under these conditions.
# Columns and labels:
# [1] = molecular target: GST-TBX3 Y163fs2* (human) (UniProt O15119); test: EMSA; conditions: 20 mM HEPES (pH not given), 100 mM KCl, 1 mM DTT, 0.25 mM EDTA, 0.01% NP-40, 1 mM MgCl2, 8% glycerol, 100 ug/ml BSA, 1 mg/ml poly(dI-dC), 15 C, 1 h; 6% gel, 1x TBE; recombinant protein; residues 1-162; protein details: N-terminal GST (pGEX-2TK); label: 5' digoxigenin
# [2] = molecular target: T1, GST-TBX3(1-342) H187Y (human) (UniProt O15119); test: EMSA; conditions: faint, obvious only when overexposed; 20 mM HEPES (pH not given), 100 mM KCl, 1 mM DTT, 0.25 mM EDTA, 0.01% NP-40, 1 mM MgCl2, 8% glycerol, 100 ug/ml BSA, 1 mg/ml poly(dI-dC), 15 C, 1 h; 6% gel, 1x TBE; recombinant protein; residues 1-342; protein details: N-terminal GST (pGEX-2TK); label: 5' digoxigenin
# T1 sequence (looked up): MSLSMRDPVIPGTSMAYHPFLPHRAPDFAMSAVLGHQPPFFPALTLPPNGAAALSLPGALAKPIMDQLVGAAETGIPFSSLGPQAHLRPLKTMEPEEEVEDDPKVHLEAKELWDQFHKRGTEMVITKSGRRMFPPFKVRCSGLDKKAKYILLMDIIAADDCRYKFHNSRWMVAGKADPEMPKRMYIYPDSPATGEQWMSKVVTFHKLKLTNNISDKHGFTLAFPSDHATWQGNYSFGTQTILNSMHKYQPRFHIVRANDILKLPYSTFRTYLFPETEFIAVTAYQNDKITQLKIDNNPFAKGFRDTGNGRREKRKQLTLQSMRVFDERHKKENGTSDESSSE
sequence,measurement,setting,value
AATTTCACACCTAGGTGTGAAATT (double strand),binding result,[1],no binding
same,binding result,[2],binds more weakly
